# Data: the supplement of paper PMC10331698
# ± gives the standard deviation of the averaged measurements. Most entries show no effect beyond the scatter of the controls.
# How the values were obtained:
# Assay in all cases: level (log10 ratio to DMSO vehicle control); higher = higher biomarker level / cell amount than vehicle control
# [1] = compound: C=CC(F)(F)C(F)(F)C(F)(F)C(F)(F)C(F)(F)C(F)(F)C(F)(F)C(F)(F)C=C [1,8-Divinylperfluorooctane]; conditions: in DMSO
# Method: (§1)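 BioMAP Diversity Plus panel of 12 human primary cell co-culture systems (3C, 4H, LPS, SAg, BT, BF4T, BE3C, CASM3C, HDF3CGF, KF3CT, MyoF, Mphg). Compounds were added 1 h before stimulation and left for 24 h (MyoF 48 h; BT 72 h for soluble read-outs or 6 d for IgG). Biomarkers were read by ELISA, cytotoxicity by SRB, PBMC viability and proliferation by Alamar Blue. Each well value was divided by the mean of 8 DMSO control wells on the same plate and log10 transformed; duplicate blinded samples were tested at 4 concentrations.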
# [2] = compound: FC(F)(F)C(F)(F)C(F)(F)CC1CO1 [1H,1H-Heptafluorobutyl epoxide]; conditions: 2200 nM; in DMSO
# Method: as §1
# [3] = compound: C=CC(=O)OCC(F)(F)C(F)(F)C(F)(F)C(F)(F)C(F)(F)C(F)(F)C(F)(F)F [1H,1H-Perfluorooctyl acrylate]; conditions: 2200 nM; in DMSO
# Method: as §1
# [4] = compound: CO[Si](C)(CCC(F)(F)C(F)(F)C(F)(F)C(F)(F)C(F)(F)C(F)(F)F)OC [Dimethoxymethyl((perfluorohexyl)ethyl)silane]; conditions: in DMSO
# Method: as §1
# [5] = compound: NC(=O)C(F)(F)C(F)(F)C(F)(F)C(F)F; conditions: in DMSO
# Method: as §1
# [6] = compound: COC(=O)C(F)(F)C(F)(F)OC(F)(C(F)(F)F)C(F)(F)OC(F)=C(F)F [Methyl perfluoro(3-(1-ethenyloxypropan-2-yloxy)propanoate)]; conditions: in DMSO
# Method: as §1
# [7] = compound: O=S(=O)(OCC(F)(F)F)C(F)(F)C(F)(F)C(F)(F)C(F)(F)F [2,2,2-Trifluoroethyl perfluorobutanesulfonate]; conditions: 2200 nM; in DMSO
# Method: as §1
# [8] = compound: OCCCCC(F)(F)C(F)(F)C(F)(F)C(F)(F)F [4:4 Fluorotelomer alcohol]; conditions: 2200 nM; in DMSO
# Method: as §1
# [9] = compound: O=S(=O)(O)C(F)(F)C(F)(F)C(F)(F)C(F)(F)C(F)(F)C(F)(F)C(F)(F)C(F)(F)F [Potassium perfluorooctanesulfonate]; conditions: 2200 nM; in DMSO
# Method: as §1
# [10] = compound: NS(=O)(=O)C(F)(F)C(F)(F)C(F)(F)C(F)(F)C(F)(F)C(F)(F)C(F)(F)C(F)(F)F [Perfluorooctanesulfonamide]; conditions: in DMSO
# Method: as §1
# [11] = compound: O=S(=O)(O)C(F)(F)C(F)(F)C(F)(F)C(F)(F)C(F)(F)C(F)(F)C(F)(F)C(F)(F)F [Perfluorooctanesulfonic acid]; conditions: 2200 nM; in DMSO
# Method: as §1
# [12] = compound: O=C(O)C(F)(F)C(F)(F)C(F)F [4H-Perfluorobutanoic acid]; conditions: in DMSO
# Method: as §1
# [13] = compound: O=P(O)(O)CCC(F)(F)C(F)(F)C(F)(F)C(F)(F)C(F)(F)C(F)(F)F [2-(Perfluorohexyl)ethylphosphonic acid]; conditions: 2200 nM; in DMSO
# Method: as §1
# [14] = compound: C=C(C)C(=O)OCC(F)(F)C(F)(F)C(F)(F)C(F)(F)C(F)(F)C(F)(F)C(F)(F)F; conditions: in DMSO
# Method: as §1
# Heptafluorobutyl iodide = compound: FC(F)(F)C(F)(F)C(F)(F)CI [Heptafluorobutyl iodide]; conditions: 2200 nM; in DMSO
# Method: as §1
# [15] = compound: O=S(=O)(F)C(F)(F)C(F)(F)C(F)(F)C(F)(F)C(F)(F)C(F)(F)C(F)(F)C(F)(F)F [Perfluorooctanesulfonyl fluoride]; conditions: 2200 nM; in DMSO
# Method: as §1
# Pentafluoropropionamide = compound: NC(=O)C(F)(F)C(F)(F)F [Pentafluoropropionamide]; conditions: 2200 nM; in DMSO
# Method: as §1
# [16] = compound: OCC(F)(F)C(F)(F)C(F)(F)C(F)(F)C(F)(F)C(F)F [1H,1H,7H-Dodecafluoro-1-heptanol]; conditions: 2200 nM; in DMSO
# Method: as §1
Test System,level (log10) ([1]; 740 nM),level (log10) ([1]; 2200 nM),level (log10) [2],level (log10) [3],level (log10) ([4]; 740 nM),level (log10) ([4]; 2200 nM),level (log10) ([5]; 2200 nM),level (log10) ([5]; 6700 nM),level (log10) ([5]; 20000 nM),level (log10) ([5]; 60000 nM),level (log10) ([6]; 740 nM),level (log10) ([6]; 2200 nM),level (log10) [7],level (log10) [8],level (log10) [9],level (log10) ([10]; 2200 nM),level (log10) ([10]; 6700 nM),level (log10) ([10]; 20000 nM),level (log10) [11],level (log10) ([12]; 2200 nM),level (log10) ([12]; 6700 nM),level (log10) ([12]; 20000 nM),level (log10) ([12]; 60000 nM),level (log10) [13],level (log10) ([14]; 740 nM),level (log10) ([14]; 2200 nM),level (log10) (Heptafluorobutyl iodide),level (log10) [15],level (log10) (Pentafluoropropionamide),level (log10) [16]
BE3C:tPA,0.0005 ± 0.005,-0.0045 ± 0.021,0.012 ± 0.038,-0.0135 ± 0.0035,0.0015 ± 0.03,-0.026 ± 0.021,-0.0075 ± 0.022,-0.008 ± 0.0028,-0.0275 ± 0.016,-0.0235 ± 0.0021,-0.056 ± 0.031,-0.118 ± 0.023,-0.001 ± 0.0028,0.005 ± 0.018,0.122 ± 0.016,0.0715 ± 0.044,0.0025 ± 0.035,-0.058 ± 0.055,0.106 ± 0.056,0 ± 0.0028,-0.016 ± 0.0014,-0.0305 ± 0.012,-0.006 ± 0.016,-0.0385 ± 0.019,0.018 ± 0.0028,-0.0205 ± 0.015,0.0065 ± 0.0092,-0.009 ± 0.057,-0.0025 ± 0.00071,0.0025 ± 0.021
MyoF:Collagen I,0 ± 0.038,-0.003 ± 0.027,-0.0085 ± 0.0021,-0.005 ± 0.024,-0.006 ± 0.044,0.014 ± 0.031,-0.018 ± 0.014,-0.0115 ± 0.015,-0.002 ± 0.02,0.006 ± 0.017,-0.003 ± 0.0014,-0.0055 ± 0.021,-0.0075 ± 0.012,0.015 ± 0.011,-0.005 ± 0.028,-0.013 ± 0.011,-0.018 ± 0.014,-0.236 ± 0.0028,0.0135 ± 0.022,0.015 ± 0.0071,-0.0215 ± 0.022,-0.0115 ± 0.018,-0.0115 ± 0.0092,-0.0035 ± 0.0092,0.0375 ± 0.023,-0.001 ± 0.0014,-0.01 ± 0.0014,-0.0125 ± 0.00071,0.004 ± 0.023,-0.0015 ± 0.005
BF4T:MMP-3,0.014 ± 0.047,0.003 ± 0.0071,0.0165 ± 0.018,-0.004 ± 0.011,0.01 ± 0.028,-0.0085 ± 0.012,0.013 ± 0.05,0.01 ± 0.033,-0.005 ± 0.047,0.0075 ± 0.047,-0.008 ± 0.031,-0.005 ± 0.034,0.007 ± 0.0028,0.0415 ± 0.0021,0.0335 ± 0.0078,0.0145 ± 0.028,0.004 ± 0.024,0.0845 ± 0.028,0.019 ± 0.076,-0.007 ± 0.025,-0.0025 ± 0.012,-0.014 ± 0.02,-0.007 ± 0.023,-0.0045 ± 0.046,0.0105 ± 0.033,-0.003 ± 0.0099,0.0085 ± 0.043,0.0045 ± 0.019,-0.002 ± 0.013,0.0065 ± 0.043
BF4T:CCL2/MCP-1,0.0185 ± 0.0064,-0.012 ± 0.0028,0.0135 ± 0.011,0.015 ± 0.051,0.013 ± 0.05,-0.0085 ± 0.0064,0.044 ± 0.081,0.008 ± 0.0042,-0.0135 ± 0.0092,0.0165 ± 0.047,0.027 ± 0.023,0.011 ± 0.0085,0.017 ± 0.03,0.025 ± 0.0028,0.0385 ± 0.088,-0.005 ± 0.021,-0.084 ± 0.0071,-0.0565 ± 0.018,0.029 ± 0.011,-0.023 ± 0.025,-0.012 ± 0.0085,0.004 ± 0.011,0.0475 ± 0.069,-0.002 ± 0.038,0.013 ± 0.041,0.0005 ± 0.015,0.0175 ± 0.059,-0.0165 ± 0.032,0.003 ± 0.014,0.029 ± 0.071
